# Test results: PMC7819943, “Rice protein-binding microarrays: a tool to detect cis-acting elements near promoter regions in rice”
# Chains of the proteins cited; added tags and fusions are not shown.
# UniProt Q0JBA9, entry or part of it: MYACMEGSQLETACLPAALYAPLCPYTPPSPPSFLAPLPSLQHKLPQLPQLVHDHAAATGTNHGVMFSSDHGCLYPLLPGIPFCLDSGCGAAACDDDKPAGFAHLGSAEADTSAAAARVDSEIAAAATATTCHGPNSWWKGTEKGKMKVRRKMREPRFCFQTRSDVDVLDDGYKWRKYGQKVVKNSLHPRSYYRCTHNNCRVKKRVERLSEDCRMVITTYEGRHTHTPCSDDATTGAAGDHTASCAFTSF
# Some of the results follow.
# Target: OsWRKY34 (Oryza sativa, UniProt Q0JBA9 1-250)
# Assay: protein-binding microarray (RPBM); PBS, 2% BSA, 51.3 ng/ul salmon testes DNA, 50 uM zinc acetate, 200 nM TF, 25 C, 1 h; high values mean tight binding
# Conditions: protein: recombinant; tags: N-terminal polyhistidine and DsRed monomer fusion (pET32a); label: CyDye5-dUTP incorporated in the synthesized complementary strand; 3' TTTTT single-stranded linker to array surface; dsDNA, one strand shown
# Outline: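 Transcription factors, each fused N-terminally to a polyhistidine tag and DsRed, were expressed in E. coli BL21-CodonPlus and purified on Ni–NTA. A custom Agilent array was made double-stranded by primer extension with Cy5-dUTP and blocked with 2% BSA. It was incubated with 200 nM protein in PBS, 2% BSA, salmon testes DNA and 50 µM zinc acetate at 25 °C for 1 h, then washed. The binding signal is per-feature fluorescence intensity (arbitrary units) read on an Axon 4000B scanner.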
row,Sequence,binding signal
1,TCGTTTTCCGCATGCACGTTTTTTAAACTGCTAAATGATGCGGAGTCACCTAGTGCAG,9790 fluorescence intensity (a.u.)
2,CTGCAACTCTACTGTATGGAAAATCATGCCCGATCGATGCCGGAGTCACCTAGTGCAG,8450 fluorescence intensity (a.u.)
3,CTCGATCCAGTCCAGTGCTTTGGCCCAACACATCAACGTTCGGAGTCACCTAGTGCAG,8710 fluorescence intensity (a.u.)
4,AGCCGACGAGACGGGTGGTGGGGCGGTGGCGGCCGAGGATCGGAGTCACCTAGTGCAG,11600 fluorescence intensity (a.u.)
5,CCAACTTTTCCATCACATCGTTCCAATTTCAACCAAACTTCGGAGTCACCTAGTGCAG,8110 fluorescence intensity (a.u.)
6,CACTGAATTTTGGTTTTGATTTCTTTTGTACCTGCTGACACGGAGTCACCTAGTGCAG,8920 fluorescence intensity (a.u.)
7,CAATAGCTCATCACCATTGCATAATTAATCCAAATCAATCCGGAGTCACCTAGTGCAG,9230 fluorescence intensity (a.u.)
8,TGTTCTTCGAGGAGCACGACGACTACAAGTTCAACGGCCTCGGAGTCACCTAGTGCAG,9140 fluorescence intensity (a.u.)
9,CTTTCTAGTATTGCTCGTATTCATATAGATGTTAATAATCCGGAGTCACCTAGTGCAG,9370 fluorescence intensity (a.u.)
10,CCGCCGCTCCACCGTCTCAGCCATCGCCACCGCCCGCAGCCGGAGTCACCTAGTGCAG,8400 fluorescence intensity (a.u.)
11,TGCACCGGTTTTGATAGCTGAGGGACCCGTTGTATCTAGTCGGAGTCACCTAGTGCAG,8690 fluorescence intensity (a.u.)
12,CGTACAGACAATTTCCATATGCCAACACTGCGGCCCGACACGGAGTCACCTAGTGCAG,9040 fluorescence intensity (a.u.)
13,ATGTCACGTCCTTACATGCTTTGTTGCATGCTGCCATTATCGGAGTCACCTAGTGCAG,9120 fluorescence intensity (a.u.)
14,CTAGCTTTCACATCCTCGCTGGATTTTCTCGCGCATACCACGGAGTCACCTAGTGCAG,8970 fluorescence intensity (a.u.)
15,AGTAAGTGCCATCCTTCACCATTTCGTTCTAGCTCTGTCCCGGAGTCACCTAGTGCAG,9440 fluorescence intensity (a.u.)
16,TCTATTAGAACATATGTTTTTGGTTGATATTGTTAGATTCCGGAGTCACCTAGTGCAG,8080 fluorescence intensity (a.u.)
17,GTCATTTAAAACCAATCACATCGCCTCTTGTGCCATTATCCGGAGTCACCTAGTGCAG,9030 fluorescence intensity (a.u.)
18,ATTACTCCGTACGCAGCATTCTCCCTCGTGTCATTTTCGTCGGAGTCACCTAGTGCAG,8530 fluorescence intensity (a.u.)
19,ACAGGGCCGTAATCTAGCCCACTTGCACTATTGCAACTTGCGGAGTCACCTAGTGCAG,8910 fluorescence intensity (a.u.)
20,ATGACTCACCTCGTTTTGTGTATCTTCCCAATCTCCTCTACGGAGTCACCTAGTGCAG,9960 fluorescence intensity (a.u.)
21,CCACCCGCATCCGCGCGCGCTGCTCCGCCTGCCGCCGGCCCGGAGTCACCTAGTGCAG,9470 fluorescence intensity (a.u.)
22,CGCGTCGACGGCGGGGATGGGGACGGGTTGGTTGATCTTTCGGAGTCACCTAGTGCAG,10900 fluorescence intensity (a.u.)
23,TTCCCCATGAGCAAGCTCCTCCACTGCGCCACCGTCTCCTCGGAGTCACCTAGTGCAG,9080 fluorescence intensity (a.u.)
24,GGCCGGCGGGTGGCCGGGTGGGGAGGAGGTCGGCAGGGCGCGGAGTCACCTAGTGCAG,9780 fluorescence intensity (a.u.)
25,GGTGAAGCGAGGTTCTGGACAAGGGGATGTGTGTGGGAGTCGGAGTCACCTAGTGCAG,8430 fluorescence intensity (a.u.)
26,TAATCCTGTGTCCGTCATTGAGCATGTGTGTATGAATCAACGGAGTCACCTAGTGCAG,9290 fluorescence intensity (a.u.)
27,TCTTCCGCCGCACTTTTAGATCATCACACATCACCGAGATCGGAGTCACCTAGTGCAG,8070 fluorescence intensity (a.u.)

row,Sequence,binding signal
1,CCTCCTATCGAATGCCGCCTCTTTTCTGCCCGTCCACTGCCGGAGTCACCTAGTGCAG,9380 fluorescence intensity (a.u.)
2,GCTTCTAGTACCTGTGAAATTTACTTTGGTTCCATTTTTTCGGAGTCACCTAGTGCAG,10900 fluorescence intensity (a.u.)
3,ATTCATTGTGTGCCATCTGGTGGTGTTGTGTATAATATTACGGAGTCACCTAGTGCAG,11400 fluorescence intensity (a.u.)
4,GTAATGGCATATTTGCAATTATCCCTTTGTTTATTTATTTCGGAGTCACCTAGTGCAG,8510 fluorescence intensity (a.u.)
5,CCTCGCTGCCGCCTCAGCTCCTCCGCTTACTCGTATTCCACGGAGTCACCTAGTGCAG,11400 fluorescence intensity (a.u.)
6,CACTCTCTCGGTCTCTCCATCCATCCACCTCTCTCGATCGCGGAGTCACCTAGTGCAG,8050 fluorescence intensity (a.u.)
7,GCGCTACTTCGCTCGACCACCCGCCCGCCTTCCACTGCCACGGAGTCACCTAGTGCAG,8550 fluorescence intensity (a.u.)
8,GCTGCCCCTTGTACTTACTTCTATCATCTTTCTTCCCACACGGAGTCACCTAGTGCAG,8880 fluorescence intensity (a.u.)
9,TTCACACACGAGTAATTGCAGCCTTGCTTTCTCGAAAAAACGGAGTCACCTAGTGCAG,17100 fluorescence intensity (a.u.)
10,TGCCATTTGAGTGCATTCATGTTCTTACTGTATCGCCTGACGGAGTCACCTAGTGCAG,8220 fluorescence intensity (a.u.)
11,GCTAGGGTTTTTGGGTTCACTTTGAGGCTGTTTGGTTGGTCGGAGTCACCTAGTGCAG,15100 fluorescence intensity (a.u.)
12,GCTGCACAGCTAGTCAACACAAGCTAGTCAAACCGTTGACCGGAGTCACCTAGTGCAG,19200 fluorescence intensity (a.u.)
13,ACACCGCACCGCCGCAATCGTTGGCACAAGCTACAACCCTCGGAGTCACCTAGTGCAG,8540 fluorescence intensity (a.u.)
14,TTTCAGGGCTATGGATGCCCTGGACTTTCTGGCCCAGCTTCGGAGTCACCTAGTGCAG,8980 fluorescence intensity (a.u.)
15,TCCTCTTCCTCCTCCGTCTCCGCTAGGGTTTCCGCGCCGCCGGAGTCACCTAGTGCAG,8170 fluorescence intensity (a.u.)
16,GACGTTCTCTGCTTCCACCTCTAGTACGTTTCTACTCTACCGGAGTCACCTAGTGCAG,11800 fluorescence intensity (a.u.)
17,GGGTTTGGTCGTCAGTCTGAGGTTGGCAGAGTTTTTAGATCGGAGTCACCTAGTGCAG,13100 fluorescence intensity (a.u.)
18,AACCATTCCTGTGTTTTTCCTGTGTTTTGCAATCCTCTGTCGGAGTCACCTAGTGCAG,12100 fluorescence intensity (a.u.)
19,GGTGGGTGGGCATTTGCAACAAAATAACTTACGGGGTGGACGGAGTCACCTAGTGCAG,17000 fluorescence intensity (a.u.)
20,ATGTCTAGCAAGGCTATGGCTGCATGAAATTGTTAGGAGTCGGAGTCACCTAGTGCAG,11900 fluorescence intensity (a.u.)
21,GTCAAGCATTCGCCCGTGTTTGCTCGCTCCGCTCCGTCACCGGAGTCACCTAGTGCAG,10000 fluorescence intensity (a.u.)
22,TGCGTCCCATTTTTCCGTTCGCTCCGCCGCATCGCTAAACCGGAGTCACCTAGTGCAG,9410 fluorescence intensity (a.u.)
23,TGTGTCGATGTTGTTTCTTTGACTTGTGACTCTCATTGGACGGAGTCACCTAGTGCAG,10700 fluorescence intensity (a.u.)
24,ATTTTTACTCTAACAACAGCTCATCTACTACCCTACTACTCGGAGTCACCTAGTGCAG,8660 fluorescence intensity (a.u.)
25,TGCAGCATATGCTTGACCTTTATGTGTTTTATATAATTTTCGGAGTCACCTAGTGCAG,8260 fluorescence intensity (a.u.)
26,TCTCCCGTCTTTACAATCCACCGCGTACTACCGCCTCCACCGGAGTCACCTAGTGCAG,8160 fluorescence intensity (a.u.)
27,GCTTCTCTCGCGCGCGCACCAACCGCCGCCCGTGCCCGGTCGGAGTCACCTAGTGCAG,8890 fluorescence intensity (a.u.)

# Rewritten bar-delimited: entries from further up.
row | Sequence | binding signal
4 | GTAATGGCATATTTGCAATTATCCCTTTGTTTATTTATTTCGGAGTCACCTAGTGCAG | 8510 fluorescence intensity (a.u.)
22 | TGCGTCCCATTTTTCCGTTCGCTCCGCCGCATCGCTAAACCGGAGTCACCTAGTGCAG | 9410 fluorescence intensity (a.u.)
